This note sets out measurements from patent publication US5891622A, “Assessment of oxidative stress in vivo” (Oxford Biomedical Research, Inc., priority 1998, dated 1999).

SMILES strings stand for the structures.

This data set concerns anti-8EPGF2 IgG. Briefly: immunoreactivity of antibodies against 8EPGF2 for esterified 8EPGF2. The data set is classed as binding, goat.

Take `CCCCC[C@H](O)/C=C/[C@@H]1[C@H](C/C=C\CCCC(=O)O)[C@@H](O)C[C@H]1O` [8EPGF2, 8-epi-prostaglandin F2α]: under “free form”, the “8-epi-PGF2α, Free Form” value is listed as 113.8 pg/mg oxidized LDL. Moreover, the “8-epi-PGF2α, Total” value (total) stood at 795.7 pg/mg oxidized LDL.
